These are yes or no findings as the source states them, for the method shown. In cells and extracts the contact can be indirect. Some entries that bind do so weakly or less than the wild type. For some assays here: Sequences can lack the tags named with a protein.
Assays:
[1] = molecular target: T1, Myc-CRY1 (mouse) (UniProt P97784); assay: co-IP; HEK293T/17 cells, 10 uM MG132 for 6 hours, lysed with IP Buffer, immunoprecipitation with anti-Myc or anti-FLAG antibody; normal mouse IgG as negative control
T1 sequence: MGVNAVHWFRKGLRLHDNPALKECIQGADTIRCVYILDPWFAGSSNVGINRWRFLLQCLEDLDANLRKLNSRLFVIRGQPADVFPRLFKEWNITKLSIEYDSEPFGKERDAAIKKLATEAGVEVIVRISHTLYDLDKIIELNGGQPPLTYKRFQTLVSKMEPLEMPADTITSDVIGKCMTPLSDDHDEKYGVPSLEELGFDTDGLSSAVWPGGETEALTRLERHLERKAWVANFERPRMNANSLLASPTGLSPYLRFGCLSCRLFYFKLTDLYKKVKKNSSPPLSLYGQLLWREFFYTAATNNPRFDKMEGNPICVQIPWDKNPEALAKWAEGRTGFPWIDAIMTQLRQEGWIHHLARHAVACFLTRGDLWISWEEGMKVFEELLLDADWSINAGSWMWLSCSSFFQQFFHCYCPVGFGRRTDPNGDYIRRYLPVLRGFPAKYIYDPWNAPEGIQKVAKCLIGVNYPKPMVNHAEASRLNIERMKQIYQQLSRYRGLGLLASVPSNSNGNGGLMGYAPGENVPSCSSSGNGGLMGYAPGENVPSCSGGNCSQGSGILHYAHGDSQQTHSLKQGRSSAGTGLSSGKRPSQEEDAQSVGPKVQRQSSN

Chains of the proteins cited; added tags and fusions are not shown.
UniProt Q16531: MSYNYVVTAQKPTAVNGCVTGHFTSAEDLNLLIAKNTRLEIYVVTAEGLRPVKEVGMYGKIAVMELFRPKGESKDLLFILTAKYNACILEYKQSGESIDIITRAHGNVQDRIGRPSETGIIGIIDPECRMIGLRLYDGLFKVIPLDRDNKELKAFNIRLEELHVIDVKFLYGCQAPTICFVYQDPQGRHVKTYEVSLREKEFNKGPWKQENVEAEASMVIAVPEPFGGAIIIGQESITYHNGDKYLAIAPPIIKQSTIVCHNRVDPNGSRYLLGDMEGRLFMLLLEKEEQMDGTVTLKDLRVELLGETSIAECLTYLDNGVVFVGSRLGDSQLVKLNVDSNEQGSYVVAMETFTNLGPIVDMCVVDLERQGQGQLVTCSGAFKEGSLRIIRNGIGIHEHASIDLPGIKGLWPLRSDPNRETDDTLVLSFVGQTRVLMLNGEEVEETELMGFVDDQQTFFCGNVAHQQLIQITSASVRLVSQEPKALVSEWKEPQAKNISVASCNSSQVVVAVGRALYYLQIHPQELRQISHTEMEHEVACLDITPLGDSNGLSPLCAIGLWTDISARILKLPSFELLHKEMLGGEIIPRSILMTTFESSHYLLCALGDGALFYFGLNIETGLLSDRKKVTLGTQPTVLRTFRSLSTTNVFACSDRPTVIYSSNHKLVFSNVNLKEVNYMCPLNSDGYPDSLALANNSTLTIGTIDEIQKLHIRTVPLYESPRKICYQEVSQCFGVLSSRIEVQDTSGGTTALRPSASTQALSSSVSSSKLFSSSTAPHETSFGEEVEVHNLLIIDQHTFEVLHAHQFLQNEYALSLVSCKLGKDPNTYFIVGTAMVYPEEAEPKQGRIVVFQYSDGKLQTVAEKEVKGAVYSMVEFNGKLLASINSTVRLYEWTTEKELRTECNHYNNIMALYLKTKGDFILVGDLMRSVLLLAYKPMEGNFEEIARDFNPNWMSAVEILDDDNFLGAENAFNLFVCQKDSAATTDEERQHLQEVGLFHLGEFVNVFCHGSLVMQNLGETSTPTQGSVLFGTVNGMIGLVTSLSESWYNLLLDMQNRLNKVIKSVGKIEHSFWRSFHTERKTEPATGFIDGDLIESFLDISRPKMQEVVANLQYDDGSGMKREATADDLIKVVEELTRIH
UniProt Q13263: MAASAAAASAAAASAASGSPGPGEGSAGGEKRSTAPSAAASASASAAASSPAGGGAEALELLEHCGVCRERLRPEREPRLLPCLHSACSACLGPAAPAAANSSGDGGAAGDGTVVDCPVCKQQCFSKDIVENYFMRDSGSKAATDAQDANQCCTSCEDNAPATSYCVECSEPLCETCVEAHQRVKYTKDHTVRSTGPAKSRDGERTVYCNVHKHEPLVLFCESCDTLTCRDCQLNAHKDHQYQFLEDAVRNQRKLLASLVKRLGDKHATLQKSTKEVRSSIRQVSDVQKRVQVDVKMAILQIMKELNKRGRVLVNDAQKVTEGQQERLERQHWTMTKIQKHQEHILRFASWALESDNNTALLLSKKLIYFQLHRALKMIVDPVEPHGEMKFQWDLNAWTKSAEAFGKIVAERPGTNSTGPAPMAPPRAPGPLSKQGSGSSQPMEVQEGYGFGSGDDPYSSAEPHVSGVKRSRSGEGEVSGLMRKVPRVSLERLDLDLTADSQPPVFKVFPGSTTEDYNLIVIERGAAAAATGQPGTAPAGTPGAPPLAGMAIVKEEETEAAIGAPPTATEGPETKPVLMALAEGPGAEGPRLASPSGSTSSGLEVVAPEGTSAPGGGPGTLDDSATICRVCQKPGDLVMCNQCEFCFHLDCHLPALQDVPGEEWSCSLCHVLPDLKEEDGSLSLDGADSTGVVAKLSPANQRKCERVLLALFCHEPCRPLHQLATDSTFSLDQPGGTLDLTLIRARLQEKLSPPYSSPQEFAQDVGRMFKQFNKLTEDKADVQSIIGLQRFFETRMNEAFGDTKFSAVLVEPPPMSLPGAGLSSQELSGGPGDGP
UniProt Q9NXV2: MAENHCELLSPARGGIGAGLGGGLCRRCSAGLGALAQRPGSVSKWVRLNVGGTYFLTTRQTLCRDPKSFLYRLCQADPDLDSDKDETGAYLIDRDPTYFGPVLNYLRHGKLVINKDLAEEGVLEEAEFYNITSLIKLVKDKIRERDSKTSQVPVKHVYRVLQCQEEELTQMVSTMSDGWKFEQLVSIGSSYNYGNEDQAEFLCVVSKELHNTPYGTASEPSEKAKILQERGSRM
UniProt Q13148: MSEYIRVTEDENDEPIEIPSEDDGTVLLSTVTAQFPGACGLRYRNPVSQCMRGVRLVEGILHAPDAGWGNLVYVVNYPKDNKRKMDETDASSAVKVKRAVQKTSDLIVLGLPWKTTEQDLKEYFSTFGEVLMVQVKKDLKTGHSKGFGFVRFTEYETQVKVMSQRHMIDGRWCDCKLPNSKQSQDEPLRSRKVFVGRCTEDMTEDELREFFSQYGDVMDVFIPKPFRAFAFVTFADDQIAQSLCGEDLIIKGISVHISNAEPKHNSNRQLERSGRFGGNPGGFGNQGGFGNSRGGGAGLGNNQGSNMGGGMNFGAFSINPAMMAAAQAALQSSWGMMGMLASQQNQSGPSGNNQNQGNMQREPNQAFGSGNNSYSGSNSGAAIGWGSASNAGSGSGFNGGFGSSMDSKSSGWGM

[2] = molecular target: T2, CRY2 (in HEK293T/17 cells, S1 Fig C) (mouse) (UniProt Q9R194); assay: as above
T2 sequence: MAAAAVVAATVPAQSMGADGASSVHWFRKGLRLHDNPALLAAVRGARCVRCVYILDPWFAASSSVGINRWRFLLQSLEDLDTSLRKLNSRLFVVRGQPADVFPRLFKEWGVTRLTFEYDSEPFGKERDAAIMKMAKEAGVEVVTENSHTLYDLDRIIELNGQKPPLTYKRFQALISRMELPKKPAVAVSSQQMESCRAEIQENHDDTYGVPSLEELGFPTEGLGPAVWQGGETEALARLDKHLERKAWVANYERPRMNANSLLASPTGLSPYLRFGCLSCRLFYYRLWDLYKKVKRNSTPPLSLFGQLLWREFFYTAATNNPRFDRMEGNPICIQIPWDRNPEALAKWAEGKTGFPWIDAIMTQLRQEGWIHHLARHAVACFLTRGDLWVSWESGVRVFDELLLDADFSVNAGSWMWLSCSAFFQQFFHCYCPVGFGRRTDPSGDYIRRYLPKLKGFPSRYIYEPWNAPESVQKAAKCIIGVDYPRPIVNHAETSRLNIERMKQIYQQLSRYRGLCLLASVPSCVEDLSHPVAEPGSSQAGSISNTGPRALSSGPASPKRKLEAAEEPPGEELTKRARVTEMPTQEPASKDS

[3] = molecular target: T3, FLAG-CRY2 (in HEK293 cells) (mouse) (UniProt Q9R194); assay: co-IP; HEK293 cells expressing FLAG-CRY2, or Myc-CRY2 and/or FLAG-TDP-43, lysed with IP Buffer, immunoprecipitation with anti-FLAG antibody, western blotting
T3 sequence: T2 sequence

Substance | binding [1] | binding [2] | binding [3]
DDB1 (in HEK293T/17 cells) (from UniProt Q16531 1-1140) | binds | binds | –
FLAG-TRIM28 (from UniProt Q13263 1-835) | binds | – | –
KCTD5 (from UniProt Q9NXV2 1-234) | binds | – | –
endogenous TDP-43 (HEK293) (from UniProt Q13148 1-414) | – | – | binds

— publication PMC4849774
